The nature of the assay: qHTS Assay for Lipid Storage Modulators in Drosophila S3 Cells.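 For cell number change: cells counted by Cell Tracker Red CMTPX staining in the red channel.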 Particulars: BODIPY lipid droplet fluorescence, 18-24 h; for cell number change: measured here: cell count max response, cells fed with added oleic acid. The procedure, abridged: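 Drosophila S3 cells loaded with oleic acid (400 uM, as added) and compounds at several concentrations; lipid droplets imaged by 488-nm laser-scanning cytometry, 500–530 nm intensity and object ratio to cell channel. Percent activity normalized to 20 uM Triacsin C.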
Background: qHTS replaces the single test concentration by a dilution series.

The mark [1] stands for this setting: measured here: lipid fluorescence (Fed channel) AC50, cells fed with added oleic acid.
[2] abbreviates: measured here: cell number channel AC50, cells fed with added oleic acid.

This note sets out measurements from PubChem BioAssay AID2685 (National Center for Advancing Translational Sciences (NCATS), 2010).

By AC50 is commonly meant the concentration at which the activity in the assay is half-maximal. A lower AC50 goes with activity at low concentration.

Some of the results follow. The main result of the screen is listed elsewhere. These columns were measured beside it and carry no call. Compounds called inactive in the main read-out are mostly missing here. Potencies come from curve fits of mixed quality, noted in brackets.

As for `Cc1ccc(-n2c(O)c(C=Nc3ccccc3-c3n[nH]c(=S)[nH]c3=O)c3ccccc3c2=O)c(C)c1`, the cell number change came out at 14.3%. For the same molecule, the AC50 under setting [1] was 4.11 µM [rising, single point].

As for `COc1ccc(Br)cc1/C=N/N1CCN(Cc2ccccc2Cl)CC1`, the cell number change came to 27.7%.

For `CC(C)n1c(C(O)c2ccc3c(c2)OCO3)nc2ccccc21` (stereo not given), the cell number change amounted to 35.1%. In addition, the AC50 under setting [2] was 8.2 µM [rising, partial curve, poor fit]. Turning to `CC(C)(C)CC(C)(C)NC(=O)Nc1cccc([N+](=O)[O-])c1`, the cell number change was -66%. Further, the AC50 under setting [2] was 20.6 µM [falling, single point]. Moreover, the AC50 under setting [1] was 29.1 µM [falling, single point]. Turning to `Cc1nn(C)c(C(=O)Nc2ccc(Br)cc2F)c1Br`, the cell number change is 7.96%. `CC(C)CCNC(=O)Cn1c(=O)oc2cc(S(=O)(=O)N3CCc4ccccc43)ccc21`: the cell number change amounted to 71.8%. Further, the AC50 under setting [2] is 23.1 µM [rising, single point]. Under setting [1], the AC50 was 29.1 µM [rising, single point]. Consider `COC(=O)C1=CN(C2CC2)C=C(C(=O)OC)C1c1ccc(C(F)(F)F)cc1`, for which the cell number change is -16.5%. Besides, the AC50 under setting [2] is 0.731 µM [falling, full curve, poor fit]. For the molecule `O=C(O)C1=NN(c2ccccc2)C(=O)CC1`, the cell number change is -0.525%. The AC50 under setting [1] is 3.26 µM [rising, full curve].

For the molecule `O=C(O)c1cc(=O)cc(C(=O)O)[nH]1`, the cell number change is -164%. In addition, under setting [2], the AC50 is 29.1 µM [falling, partial curve]. For the molecule `N#C/C(=C\c1cccc([N+](=O)[O-])c1)c1nnc2n1CCCCC2`, the AC50 under setting [1] is 4.61 µM [falling, full curve]. Consider `Fc1cnc(Cl)nc1N1CCN(c2ccccc2)CC1`, for which the cell number change stood at 17.5%. Moreover, the AC50 under setting [1] was 0.13 µM [rising, full curve, poor fit].

Turning to `CC(C)NC(=O)/C(=C/c1ccco1)c1ccccc1`, the cell number change came to 48.5%. Moreover, under setting [2], the half-maximal activity concentration (AC50) was 7.31 µM [rising, full curve, poor fit]. Moreover, the concentration at half-maximal activity (AC50) under setting [1] is 29.1 µM [rising, single point]. As to `Cc1cc2c(s1)c1c(n2C)C(=O)N(Cc2ccccc2F)C1`, the cell number change was -1.42%. Turning to `O=C(N/N=C/c1ccc[nH]1)c1cc2ccccc2cc1O`, the cell number change was 51.4%. Besides, under setting [2], the AC50 is 29.1 µM [rising, single point]. The AC50 under setting [1] is 29.1 µM [rising, single point].

Turning to `CC1(C)Cc2cccc(OCC(=O)N3CCN(S(=O)(=O)c4ccccc4F)CC3)c2O1`, the cell number change was -0.673%. The AC50 under setting [1] is 7.31 µM [rising, single point]. With `CCc1ccc(N2CC(C(=O)Nc3cccc(C(=O)NC4CC4)c3)CC2=O)cc1` (stereo not given), the cell number change turned out to be 11.1%. Also, the AC50 under setting [1] was 0.116 µM [rising, full curve, poor fit]. In the case of `COc1ccc(Nc2ncnc3c2oc2ccccc23)cc1`, the cell number change was -20.3%. Moreover, the AC50 under setting [1] is 11.6 µM [rising, partial curve, poor fit]. Regarding `Cc1ccc(Cc2c(C)c(C#N)c3[nH]c4ccccc4n3c2=O)cc1`, the cell number change is -54.5%. Further, under setting [2], the AC50 is 1.3 µM [falling, partial curve, poor fit]. The AC50 under setting [1] was 29.1 µM [falling, partial curve, poor fit]. As for `COc1ccc(NC(=O)C(=O)NNC(=O)COc2ccc(OC)cc2)cc1`, the cell number change is 12.5%. Besides, the AC50 under setting [1] was 29.1 µM [rising, single point]. Consider `CC(C)c1ccc(C(C(=O)NC2CCCC2)N(C(=O)c2csnn2)C2CC2)cc1` (stereo not given), for which the cell number change is -7.69%. Take `COc1cc(/C=N/NC2=NS(=O)(=O)c3ccccc32)ccc1OC(C)=O`: the cell number change came to 7.56%. In addition, the AC50 under setting [1] is 0.00461 µM [rising, full curve, poor fit]. Take `Cc1nn(-c2ccccc2)c(Cl)c1C(=O)N1CCN(C)CC1`: the cell number change is -78.5%. Further, the AC50 under setting [2] was 32.6 µM [falling, partial curve, poor fit].

On to `Cc1ccc(S(=O)(=O)/N=C2\C(=O)c3ccccc3C([O-])=C2n2cc[n+](CCC(C)C)c2)cc1`, for which the cell number change is -23.2%. Moreover, the AC50 under setting [1] is 14.6 µM [rising, partial curve]. For the molecule `COC(=O)CCCc1nc2ccccc2s1`, the cell number change stood at 35%. Under setting [2], the AC50 was 25.9 µM [rising, single point]. `CC(=O)c1ccc(NS(=O)(=O)c2ccc(N/C=C/C(=O)c3ccc(F)cc3)cc2)cc1`: the cell number change amounted to 16.8%. Under setting [1], the AC50 was 1.3 µM [rising, partial curve, poor fit].

`CCOCc1nnc(NC(=O)c2c(-c3ccccc3)noc2C)s1`: the cell number change came to 1.21%. The AC50 under setting [1] was 2.06 µM [falling, full curve]. In the case of `c1coc(-c2ccnc3nc(-n4cccc4)nn23)c1`, under setting [2], the AC50 is 6.51 µM [rising, partial curve, poor fit]. As to `O=C1NC(c2cccc(Cl)c2)Oc2ccccc21` (stereo not given), the cell number change came to 10.6%. Also, under setting [1], the AC50 was 0.58 µM [rising, single point]. `Cc1ccnc(NC(=O)CNC(=O)c2ccc(C)s2)c1`: the cell number change was 60.9%. Also, the AC50 under setting [2] was 20.6 µM [rising, partial curve]. For `CCCS(=O)(=O)c1ncc(Cl)c(C(=O)Nc2ccc(S(=O)(=O)Nc3ncccn3)cc2)n1`, the cell number change was -18.3%. For the same molecule, the AC50 under setting [1] was 29.1 µM [falling, single point]. As to `COc1ccc(C2Nc3ccccc3C(=O)N2c2ccccc2)cc1Cn1cc([N+](=O)[O-])cn1` (stereo not given), the cell number change is 7.03%. In addition, the AC50 under setting [1] is 7.31 µM [rising, partial curve, poor fit]. Regarding `COc1cc(C2NC(=S)NC(c3ccccc3)=C2C(C)=O)cc(Br)c1OCC(N)=O` (stereo not given), the cell number change turned out to be 27.4%. The AC50 under setting [1] is 1.46 µM [rising, partial curve]. `COc1cc(OC)cc(C(=O)NC(=S)Nc2ccc(N3CCCC3)cc2)c1`: the cell number change is -22.9%. With `O=C1Nc2ccccc2C1=Nc1ccc(-c2nnc3n2CCCCC3)cc1`, the cell number change came to 9.39%. Also, the AC50 under setting [1] is 9.2 µM [rising, partial curve]. On to `O=c1c(Cc2c(F)cccc2Cl)c(O)ccn1C1CCCCCC1`, for which the cell number change stood at 9.58%. Moreover, the AC50 under setting [1] is 0.1 µM [falling, full curve, poor fit].

Regarding `CSCCNC(=O)c1cccc(Cl)c1`, the cell number change stood at 38.6%. Consider `O=C(c1ccccc1)N1CCN(c2ccc([N+](=O)[O-])c(NCC3CCCO3)c2)CC1` (stereo not given), for which the cell number change was -41.9%. For the same molecule, the AC50 under setting [2] is 29.1 µM [falling, single point]. As to `CCNC(=S)N1CCNC(=O)C1CC(=O)OC` (stereo not given), the cell number change was found to be 165%. Further, the AC50 under setting [2] is 29.1 µM [rising, single point]. As for `CCOCCCNC(=O)C1CCN(S(=O)(=O)N2CCCCC2)CC1`, the cell number change was -17.3%. For the same molecule, the concentration at half-maximal activity (AC50) under setting [1] was 0.259 µM [falling, full curve, poor fit].
